According to PubChem BioAssay AID256 (DTP/NCI, 2004):
The list does not hold the whole screen: it gathers tests that were run many times, whatever their T/C, doses with no T/C, and many T/C values between a quarter and a half above the control. Other doses and runs of a compound stand elsewhere. T/C: endpoint of the treated group in % of that of the vehicle group. Some entries give survivors of the animals treated and no T/C: the source holds a T/C of zero for them, seemingly a mark for toxic or unscored doses. Some doses without a T/C left all or most animals alive at the check, yet need not have been tolerated: survival well below the control is almost never listed, so the zero probably covers shortened survival too. Counts of survivors are from the toxicity check (mostly the fifth day) where no day follows; animals may have died later. Schedule codes are those of the source, taken here to give the interval after Q, in days (D) or hours (H), and the number of doses after X. Some doses were run more than once; their values stand side by side, smallest first. Where survival is the endpoint, this PubChem deposit counts one and a half times the control or more as active, and values a quarter to a half above the control carry no call in these data; other NCI protocols may use other cut-offs. Counts like (3×) stand for listed records that agree. Some T/C values carry the count of animals alive at the toxicity check (mostly the fifth day); where none is given, no animal had died by that day.

System: CD2F1 mice, L1210 leukemia ip, survival T/C
Assay: NCI In Vivo Anticancer Drug Screen. Data for tumor model L1210 Leukemia (intraperitoneal) in CD2F1 (CDF1) mice
Conditions: higher T/C = longer survival
How it was run: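 Antitumor effect is scored in animals hosting a serially transplanted tumor. Values compare compound-dosed animals against vehicle-only controls as a simple quotient.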

[1] = T/C endpoint: median survival time, dose: 400.0 mg/kg/injection, schedule: Q01DX005 (ip), vehicle: distilled water + Tween-80
[2] = T/C endpoint: median survival time, dose: 400.0 mg/kg/injection, schedule: Q01DX009 (ip), vehicle: distilled water + Tween-80
[3] = T/C endpoint: mean survival time, dose: 400.0 mg/kg/injection, schedule: Q01DX001 (ip), vehicle: saline with Tween-80
[4] = T/C endpoint: mean survival time, dose: 400.0 mg/kg/injection, schedule: Q04DX002 (ip), vehicle: saline with Tween-80
[5] = T/C endpoint: median survival time, dose: 120.0 mg/kg/injection, schedule: Q03HX009 (ip), vehicle: saline

For `Nc1cc(Cl)c2[nH]cnc2n1`, the T/C (T/C endpoint: mean survival time, dose: 12.5 mg/kg/injection, schedule: Q01DX009 (ip), vehicle: distilled water + Tween-80) was 125 % of control, the T/C (T/C endpoint: mean survival time, dose: 25.0 mg/kg/injection, schedule: Q01DX009 (ip), vehicle: distilled water + Tween-80) was 138 % of control and the T/C (T/C endpoint: mean survival time, dose: 25.0 mg/kg/injection, schedule: Q01DX009 (ip), vehicle: water) was 125 % of control. For the same molecule, the T/C (T/C endpoint: mean survival time, dose: 50.0 mg/kg/injection, schedule: Q01DX009 (ip), vehicle: water) was 134 % of control, the T/C (T/C endpoint: mean survival time, dose: 100.0 mg/kg/injection, schedule: Q01DX009 (ip), vehicle: water) was 134 % of control and the T/C (T/C endpoint: mean survival time, dose: 133.0 mg/kg/injection, schedule: Q04DX003 (ip), vehicle: saline with Tween-80) was 128 % of control. The T/C (T/C endpoint: mean survival time, dose: 200.0 mg/kg/injection, schedule: Q01DX009 (ip), vehicle: water) was 134 % of control [9 of 10 alive], the T/C (T/C endpoint: mean survival time, dose: 200.0 mg/kg/injection, schedule: Q04DX003 (ip), vehicle: Klucel (hydroxypropylcellulose) (HPC)) was 131 % of control and the T/C (T/C endpoint: mean survival time, dose: 200.0 mg/kg/injection, schedule: Q04DX003 (ip), vehicle: saline with Tween-80) was 140 % of control. The T/C (T/C endpoint: mean survival time, dose: 300.0 mg/kg/injection, schedule: Q04DX003 (ip), vehicle: saline with Tween-80) was 126 % of control [4 of 6 alive], the T/C (T/C endpoint: median survival time, dose: 25.0 mg/kg/injection, schedule: Q01DX005 (ip), vehicle: distilled water + Tween-80) was 106, 108, 113, 120, 121, 125, 126, 127, 130, 138 % of control and the T/C (T/C endpoint: median survival time, dose: 25.0 mg/kg/injection, schedule: Q01DX009 (ip), vehicle: distilled water + Tween-80) was 108, 117, 117 [5 of 6 alive], 118 (2×), 124, 130, 137, 140, 146, 160 % of control. For the same molecule, the T/C (T/C endpoint: median survival time, dose: 50.0 mg/kg/injection, schedule: Q01DX005 (ip), vehicle: distilled water + Tween-80) was 120, 125, 128, 136, 143, 144, 146, 147, 148, 151 % of control, the T/C (T/C endpoint: median survival time, dose: 50.0 mg/kg/injection, schedule: Q01DX005 (ip), vehicle: saline with Tween-80) was 135 % of control and the T/C (T/C endpoint: median survival time, dose: 50.0 mg/kg/injection, schedule: Q01DX009 (ip), vehicle: distilled water + Tween-80) was 130, 137, 139, 140, 144, 146, 148, 148 [5 of 6 alive], 150, 151 [5 of 6 alive], 154, 162 % of control. The T/C (T/C endpoint: median survival time, dose: 100.0 mg/kg/injection, schedule: Q01DX005 (ip), vehicle: distilled water + Tween-80) was 136, 138, 139, 144, 150, 151, 156, 158, 168 % of control (2×), the T/C (T/C endpoint: median survival time, dose: 100.0 mg/kg/injection, schedule: Q01DX009 (ip), vehicle: distilled water + Tween-80) was 144, 146, 147 [5 of 6 alive], 151, 159, 160 (3×), 162, 168, 171, 181 % of control and the T/C (T/C endpoint: median survival time, dose: 200.0 mg/kg/injection, schedule: Q01DX005 (ip), vehicle: distilled water + Tween-80) was 137, 145 [5 of 6 alive], 146, 150, 151, 159 [5 of 6 alive] (2×), 166, 171 [5 of 6 alive], 181 % of control. The T/C (T/C endpoint: median survival time, dose: 200.0 mg/kg/injection, schedule: Q01DX009 (ip), vehicle: distilled water + Tween-80) was 105, 139 [5 of 6 alive], 144, 151 [5 of 6 alive], 157, 158, 158 [5 of 6 alive], 160, 168 [4 of 6 alive], 170, 180, 193 % of control [5 of 6 alive], the survivor count (T/C endpoint: median survival time, dose: 200.0 mg/kg/injection, schedule: Q01DX009 (ip), vehicle: saline with Tween-80) was 4 of 6 and the T/C [1] was 143 [4 of 6 alive] and 197 % of control [5 of 6 alive]. The survivor count [1] was 0 of 6, 1 of 6, 2 of 6, 3 of 6, the survivor count (T/C endpoint: median survival time, dose: 400.0 mg/kg/injection, schedule: Q01DX005 (ip), vehicle: saline with Tween-80) was 0 of 6 and the T/C [2] was 89 [4 of 6 alive], 97 [4 of 6 alive], 108 [5 of 6 alive], 111 [4 of 6 alive], 119 % of control [5 of 6 alive]. For the same molecule, the survivor count [2] was 0 of 6, 1 of 6, 2 of 6, 3 of 6, 4 of 6 and the survivor count (T/C endpoint: median survival time, dose: 400.0 mg/kg/injection, schedule: Q01DX009 (ip), vehicle: saline with Tween-80) was 0 of 6.

For `O=c1[nH]c(NCCCCc2ccccc2)c(Br)c(=O)[nH]1`, the survivor count (T/C endpoint: mean survival time, dose: 200.0 mg/kg/injection, schedule: Q01DX001 (ip), vehicle: saline with Tween-80) was 1 of 6 and the survivor count [3] was 0 of 6.

`O=C(/C=C(\Br)c1ccccc1)c1ccccc1` was tested, and the survivor count (T/C endpoint: mean survival time, dose: 200.0 mg/kg/injection, schedule: Q04DX002 (ip), vehicle: saline with Tween-80) was 3 of 3 and the survivor count [4] was 2 of 3.

For `Nc1nc2c(ncn2-c2ccc(OCCCc3ccccc3)cc2)c(=O)[nH]1`, the survivor count (T/C endpoint: mean survival time, dose: 100.0 mg/kg/injection, schedule: Q01DX001 (ip), vehicle: saline with Tween-80) was 5 of 6.

For `COc1cc2cc3c4ccc(OC)c(OC)c4cc[n+]3c(C)c2cc1OC` (tested in a mixture with another compound), the survivor count (T/C endpoint: mean survival time, dose: 100.0 mg/kg/injection, schedule: Q01DX009 (ip), vehicle: other) was 0 of 6 and the survivor count (T/C endpoint: mean survival time, dose: 200.0 mg/kg/injection, schedule: Q01DX009 (ip), vehicle: other) was 0 of 6.

In the case of `O=C1CNC(=O)N1c1cccc(Cl)c1`, the survivor count (T/C endpoint: mean survival time, dose: 400.0 mg/kg/injection, schedule: Q01DX009 (ip), vehicle: saline with Tween-80) is reported as 2 of 6.

With `C[n+]1c2ccccc2cc2ccccc21` the survivor count (T/C endpoint: mean survival time, dose: 50.0 mg/kg/injection, schedule: Q04DX003 (ip), vehicle: saline) was 5 of 6.

In the case of `CC12C(=O)OC(=O)C1(C)C1CCC2O1` (configuration not stated), the survivor count (T/C endpoint: mean survival time, dose: 3.13 mg/kg/injection, schedule: Q04DX002 (ip), vehicle: saline with Tween-80) is reported as 2 of 3, the survivor count (T/C endpoint: mean survival time, dose: 6.25 mg/kg/injection, schedule: Q04DX002 (ip), vehicle: saline with Tween-80) is reported as 0 of 3 and the survivor count (T/C endpoint: mean survival time, dose: 25.0 mg/kg/injection, schedule: Q04DX002 (ip), vehicle: saline with Tween-80) is reported as 0 of 3. For the same molecule, the survivor count (T/C endpoint: mean survival time, dose: 50.0 mg/kg/injection, schedule: Q04DX002 (ip), vehicle: saline with Tween-80) was 0 of 3 and the survivor count (T/C endpoint: mean survival time, dose: 100.0 mg/kg/injection, schedule: Q04DX002 (ip), vehicle: saline with Tween-80) was 0 of 3.

In the case of `CCCC(C#CCN(C)C)N(C)C` (configuration not stated), the survivor count (T/C endpoint: mean survival time, dose: 100.0 mg/kg/injection, schedule: Q01DX009 (ip), vehicle: saline) is reported as 6 of 6, the survivor count (T/C endpoint: mean survival time, dose: 200.0 mg/kg/injection, schedule: Q01DX009 (ip), vehicle: saline) is reported as 0 of 6 and the survivor count (T/C endpoint: mean survival time, dose: 400.0 mg/kg/injection, schedule: Q01DX009 (ip), vehicle: saline) is reported as 0 of 6.

For `NC(=O)COc1ccc(Br)cc1`, the survivor count [4] was 1 of 3.

`C=CCCCCCCCCC(=O)NCCCN1CCOCC1` was tested, and the survivor count [3] was 0 of 6.

For `CCCCCC(C)C1(CCCC)NC(C)(C)CC(C)O1` (configuration not stated), the survivor count (T/C endpoint: mean survival time, dose: 400.0 mg/kg/injection, schedule: Q04DX003 (ip), vehicle: saline) was 0 of 6.

With `N#CCc1ccc(Cl)c(Cl)c1` the survivor count (T/C endpoint: mean survival time, dose: 100.0 mg/kg/injection, schedule: Q01DX009 (ip), vehicle: saline with Tween-80) was 3 of 6.

In the case of `COc1cccc(C(O)c2ccncc2C)c1OC` (configuration not stated), the survivor count (T/C endpoint: mean survival time, dose: 400.0 mg/kg/injection, schedule: Q01DX009 (ip), vehicle: Klucel (hydroxypropylcellulose) (HPC)) is reported as 1 of 6.

With `Nc1nc(Br)nc2c1ncn2C1CC(O)C(CO)O1` (configuration not stated) the T/C (T/C endpoint: median survival time, dose: 3.75 mg/kg/injection, schedule: Q03HX009 (ip), vehicle: water) was 133 % of control, the T/C (T/C endpoint: median survival time, dose: 7.5 mg/kg/injection, schedule: Q03HX009 (ip), vehicle: saline) was 132 (3×) and 134 % of control and the T/C (T/C endpoint: median survival time, dose: 7.5 mg/kg/injection, schedule: Q03HX009 (ip), vehicle: suspension in saline) was 131 % of control (2×). For the same molecule, the T/C (T/C endpoint: median survival time, dose: 7.5 mg/kg/injection, schedule: Q03HX009 (ip), vehicle: water) was 141 % of control, the T/C (T/C endpoint: median survival time, dose: 15.0 mg/kg/injection, schedule: Q03HX009 (ip), vehicle: saline) was 139, 150, 168 (2×), 214 % of control and the T/C (T/C endpoint: median survival time, dose: 15.0 mg/kg/injection, schedule: Q03HX009 (ip), vehicle: suspension in saline) was 147 % of control (2×). For the same molecule, the T/C (T/C endpoint: median survival time, dose: 15.0 mg/kg/injection, schedule: Q03HX024 (ip), vehicle: saline) was 144 % of control, the T/C (T/C endpoint: median survival time, dose: 30.0 mg/kg/injection, schedule: Q03HX009 (ip), vehicle: saline) was 188, 192, 204, 216 % of control (2×) and the T/C (T/C endpoint: median survival time, dose: 60.0 mg/kg/injection, schedule: Q03HX009 (ip), vehicle: saline) was 180 (2×), 181, 208 % of control. The T/C [5] was 87 [4 of 6 alive on day 4] (2×) and 90 % of control, the survivor count [5] was 3 of 6 and the survivor count (T/C endpoint: median survival time, dose: 180.0 mg/kg/injection, schedule: Q03DX003 (ip), vehicle: saline) was 3 of 6.

In the case of `CC(C)=CCNc1ncnc2c1c(C#N)cn2C1OC(CO)C(O)C1O` (configuration not stated), the survivor count (T/C endpoint: mean survival time, dose: 100.0 mg/kg/injection, schedule: Q01DX005 (ip), vehicle: saline) is reported as 0 of 6 and the survivor count (T/C endpoint: mean survival time, dose: 200.0 mg/kg/injection, schedule: Q01DX005 (ip), vehicle: saline) is reported as 0 of 6.
